Results taken from PubChem BioAssay AID2685 (National Center for Advancing Translational Sciences (NCATS), 2010).
The list shows a part of the results. These are further read-outs of the screen, such as a control signal, another cell line or another target. No call is given for them. The list favours compounds with an active or inconclusive main result. Words in brackets tell the shape of the fitted curve; partial curves, single points and poor fits give uncertain potencies.

Assay: qHTS Assay for Lipid Storage Modulators in Drosophila S3 Cells;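 for cell number change: cells counted by Cell Tracker Red CMTPX staining in the red channel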
Details: BODIPY lipid droplet fluorescence, 18-24 h; for cell number change: measured here: cell count max response, cells fed with added oleic acid
Procedure, shortened: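 Drosophila S3 cells got compounds at several concentrations plus oleic acid (400 uM solution). Laser-scanning cytometry with 488 nm excitation read lipid droplets at 500-530 nm and cells at 575-640 nm. Percent activity was relative to 20 uM Triacsin C.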

[1] = measured here: cell number channel AC50, cells fed with added oleic acid
[2] = measured here: lipid fluorescence (Fed channel) AC50, cells fed with added oleic acid

In the case of `COc1ccc(CCNC(=O)COC(=O)CCC(=O)c2ccc(F)cc2)cc1`, the cell number change is reported as -33% and the AC50 [1] is reported as 18.4 µM [falling, single point].
For `O=C(Nc1cc(Cl)ccc1-n1cncn1)c1cc(S(=O)(=O)N2CCOCC2)ccc1F`, the cell number change was -34.6%, the AC50 [1] was 8.2 µM [falling, partial curve, poor fit] and the AC50 [2] was 11.6 µM [falling, partial curve].
For `COc1cc(NC(=O)c2cccs2)c(OC)cc1NC(=O)CCC(=O)Nc1ccc(C)cc1`, the cell number change was 515% and the AC50 [1] was 25.9 µM [rising, partial curve].
For `O=C(O)c1cn(C2CC2)c2cc(N3CCN(S(=O)(=O)c4ccc5c(c4)OCCO5)CC3)c(F)cc2c1=O`, the cell number change was 150%.
`CCOC(=O)c1ccc(NC(=O)N2CCN(c3ccccc3OC)CC2)cc1` gave a cell number change of 24.8%.
In the case of `CN(C(=O)c1ccno1)c1nnc(-c2cnccn2)s1`, the AC50 [1] is reported as 0.58 µM [rising, single point].
With `Cc1ccnc(N2CCN(C(=O)CSc3nc4ccccc4nc3N3CCCCC3)CC2)c1` the AC50 [1] was 2.31 µM [rising, partial curve] and the AC50 [2] was 2.31 µM [rising, partial curve].
For `Cc1ccc(-c2noc(-c3ccccc3C(=O)N3CCN(C)CC3)n2)cc1`, the cell number change was 19.6% and the AC50 [2] was 29.1 µM [rising, single point].
For `OC1(c2ccccc2)C/C(=N\n2cnnc2)C=C1c1ccccc1` (stereo not drawn), the cell number change was 7.65% and the AC50 [2] was 0.00517 µM [falling, full curve, poor fit].
For `O=C(/C=C/c1ccccc1)NC(=O)c1ccccc1O`, the AC50 [1] was 5.8 µM [falling, single point] and the AC50 [2] was 2.06 µM [falling, partial curve].
For `O=c1c2ccccc2nc(COc2ccccc2)n1/N=C/c1cn[nH]c1-c1ccccc1`, the cell number change was 0.826% and the AC50 [2] was 0.103 µM [rising, full curve, poor fit].
For `CCC(C(=O)NC1CC1)n1nc(C)c2c(C)n(-c3ccccc3)nc2c1=O` (stereo not drawn), the cell number change was 18.6% and the AC50 [2] was 23.1 µM [rising, single point].
Work on `CCN(C(=O)c1cc2c(=O)[nH]c3ccc(C)cc3c2s1)c1ccccc1C` yielded a cell number change of 9%.
For `COCCN1Cc2cccc(C(=O)NC3CCCCCC3)c2C1=O`, the cell number change was 4.09% and the AC50 [2] was 18.4 µM [rising, single point].
For `CCn1cc(SCC(=O)NCc2ccc3c(c2)OCO3)c2ccccc21`, the AC50 [2] was 6.51 µM [rising, partial curve, poor fit].
With `CN(C)CCCNC(=O)c1ccc(Cl)c(S(=O)(=O)N(C)c2ccccc2)c1` the cell number change was 12.4% and the AC50 [2] was 0.164 µM [rising, full curve, poor fit].
In the case of `CCOC(=O)c1c(NC(=O)c2cccs2)sc(CC)c1-c1cccs1`, the AC50 [1] is reported as 1.64 µM [rising, partial curve] and the AC50 [2] is reported as 23.1 µM [rising, partial curve].
With `CCNC(=O)NC(=O)C(C)OC(=O)c1oc2ccc(OC)cc2c1C` (stereo not drawn) the AC50 [2] was 4.11 µM [rising, partial curve].
With `COc1ccc(N2CCN(CCCNC(=O)CC3Oc4ccc(C)cc4NC3=O)CC2)cc1` (stereo not drawn) the cell number change was -51.2% and the AC50 [1] was 13 µM [falling, partial curve].
With `CCn1cc(C(=O)NCc2ccc(OC)cc2)c(=O)c2ccc(C)nc21` the cell number change was 13.1%.
For `Cc1ccc(C)c(OCC(=O)NNC(=O)CCN2CCN(c3ccccc3)CC2)c1`, the cell number change was -18.7% and the AC50 [2] was 0.0058 µM [rising, full curve, poor fit].
In the case of `COc1ccccc1-c1noc(CCCC(=O)NC2CCCC2)n1`, the cell number change is reported as -22.9%.
With `Fc1cc(Br)ccc1NC(=S)Nc1cccnc1` the cell number change was 32.7%, the AC50 [1] was 0.184 µM [rising, full curve, poor fit] and the AC50 [2] was 0.231 µM [rising, full curve, poor fit].
In the case of `C=C(C)Cn1c(CN(C)Cc2ccccc2)nc2c1c(=O)n(C)c(=O)n2C`, the AC50 [2] is reported as 0.731 µM [falling, full curve].
In the case of `CCCS(=O)(=O)N1CCN(C(=O)c2ccc(-c3ccccc3)cc2)CC1`, the AC50 [2] is reported as 10.3 µM [rising, partial curve].
With `COc1cccc(/C=N/NC(N)=S)c1OCc1ccccc1Cl` the cell number change was -39.1%, the AC50 [1] was 13 µM [falling, partial curve] and the AC50 [2] was 3.66 µM [falling, full curve].
For `C=CCSc1nc2ccccc2n1C(=O)/C=C/c1ccc(OC)c(OC)c1`, the cell number change was -19% and the AC50 [2] was 0.731 µM [falling, full curve].
In the case of `O=C(NCCCCNC(=O)c1ccccn1)c1ccccn1`, the cell number change is reported as 15% and the AC50 [2] is reported as 0.82 µM [rising, full curve, poor fit].
With `O=C(O)c1ccccc1Nc1ccc([N+](=O)[O-])c2nonc12` the cell number change was -81.6%, the AC50 [1] was 29.1 µM [falling, single point] and the AC50 [2] was 23.1 µM [falling, single point].
With `COc1cc(C(=O)NCc2nnc(SCC(=O)N3CCCCC3)o2)cc(OC)c1OC` the AC50 [2] was 20.6 µM [falling, partial curve].
With `O=C(CCC(=O)OCC(F)(F)C(F)F)NCc1ccccc1` the cell number change was -27.6%, the AC50 [1] was 4.11 µM [falling, full curve, poor fit] and the AC50 [2] was 5.8 µM [falling, single point].
For `CC(C)c1nnc(NC(=O)CCC(=O)N2CCN(C3CCCCC3)CC2)s1`, the cell number change was -65.9%, the AC50 [1] was 5.17 µM [falling, partial curve, poor fit] and the AC50 [2] was 6.51 µM [falling, partial curve].
In the case of `COc1ccc(CCNC(=O)c2coc3ccccc3c2=O)cc1`, the cell number change is reported as 15% and the AC50 [2] is reported as 6.51 µM [rising, partial curve, poor fit].
With `COc1ccc(NC(=O)C2=C(C)Nc3ncnn3C2c2ccccc2C(F)(F)F)c(OC)c1` (stereo not drawn) the cell number change was -1.19% and the AC50 [2] was 20.6 µM [rising, single point].
With `CCN1CCN(P2(=O)C=C(c3ccccc3)OC(c3ccccc3)=C2)CC1` the cell number change was 10.1% and the AC50 [2] was 5.8 µM [falling, partial curve, poor fit].
For `COc1ccc(CCNC(=O)c2ccc(CNS(=O)(=O)c3cc(C)ccc3C)cc2)cc1OC`, the cell number change was -0.536% and the AC50 [2] was 18.4 µM [falling, partial curve].
For `CC(NC(=O)c1sc2cc([N+](=O)[O-])ccc2c1Cl)C(C)(C)C` (stereo not drawn), the cell number change was -24.1%.
